Drug screen on melanoma cell lines: cell count

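Human melanoma cells were exposed to a pair of drugs for 72 h in 1,536-well plates and read by automated microscopy after fixing and staining. The read-out is cell count (nuclei) in % of the DMSO control; lower values mean stronger growth inhibition or killing. Concentrations were fixed for each drug; these are the higher of two levels. No replicate spread is given; individual values may be noisy.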 This is part of the screen, not chosen by result.

Drug key:
tipifarnib (0.05 µM): Cn1cncc1[C@@](N)(c1ccc(Cl)cc1)c1ccc2c(c1)c(-c1cccc(Cl)c1)cc(=O)n2C
lenalidomide (5 µM): Nc1cccc2c1CN(C1CCC(=O)NC1=O)C2=O (stereo not shown)
L-779450 (1 µM): Oc1cc(-c2nc(-c3ccccc3)[nH]c2-c2ccncc2)ccc1Cl
bexarotene (10 µM): C=C(c1ccc(C(=O)O)cc1)c1cc2c(cc1C)C(C)(C)CCC2(C)C
fludarabine (1 µM): Nc1nc(F)nc2c1ncn2[C@@H]1O[C@H](CO)[C@@H](O)[C@@H]1O
CX-4945 (2 µM): O=C(O)c1ccc2c(c1)nc(Nc1cccc(Cl)c1)c1ccncc12
BI-78D3 (1 µM): O=c1[nH]nc(Sc2ncc([N+](=O)[O-])s2)n1-c1ccc2c(c1)OCCO2
OSI-906 (2 µM): C[C@]1(O)C[C@@H](c2nc(-c3ccc4ccc(-c5ccccc5)nc4c3)c3c(N)nccn32)C1
ruxolitinib (5 µM): N#CC[C@H](C1CCCC1)n1cc(-c2ncnc3[nH]ccc23)cn1
tozasertib (0.03 µM): Cc1cc(Nc2cc(N3CCN(C)CC3)nc(Sc3ccc(NC(=O)C4CC4)cc3)n2)n[nH]1
fingolimod (10 µM): CCCCCCCCc1ccc(CCC(N)(CO)CO)cc1
perifosine (2 µM): CCCCCCCCCCCCCCCCCCOP(=O)([O-])OC1CC[N+](C)(C)CC1
FH535 (5 µM): Cc1cc([N+](=O)[O-])ccc1NS(=O)(=O)c1cc(Cl)ccc1Cl
nutlin-3 (0.5 µM): COc1ccc(C2=N[C@@H](c3ccc(Cl)cc3)[C@@H](c3ccc(Cl)cc3)N2C(=O)N2CCNC(=O)C2)c(OC(C)C)c1
KU-55933 (5 µM): O=c1cc(-c2cccc3c2Sc2ccccc2S3)oc(N2CCOCC2)c1
RKI-983 (2 µM): C[C@@H](N)c1ccc(C(=O)Nc2ccnc3[nH]ccc23)cc1

Pair	WM3619	WM451Lu
fludarabine and lenalidomide	81.7	87.0
FH535 and perifosine	74.9	92.2
RKI-983 and FH535	46.4	89.8
CX-4945 and OSI-906	79.6	46.0
RKI-983 and BI-78D3	64.8	60.2
perifosine and OSI-906	72.9	76.5
L-779450 and ruxolitinib	112	62.8
nutlin-3 and tozasertib	76.7	94.4
FH535 and ruxolitinib	72.6	79.9
OSI-906 and tozasertib	71.0	97.5
OSI-906 and bexarotene	78.8	91.4
nutlin-3 and BI-78D3	76.1	112
lenalidomide and OSI-906	83.5	88.9
FH535 and fingolimod	6.1	34.5
L-779450 and CX-4945	65.5	60.5
CX-4945 and nutlin-3	77.0	89.3
bexarotene and ruxolitinib	79.7	86.8
RKI-983 and KU-55933	73.3	92.9
fludarabine and KU-55933	70.3	95.9
OSI-906 and nutlin-3	62.5	109
tozasertib and lenalidomide	89.1	96.3
CX-4945 and tipifarnib	67.8	71.1
tipifarnib and BI-78D3	116	67.4
lenalidomide and ruxolitinib	81.4	75.9
nutlin-3 and fingolimod	0.5	7.0
fludarabine and RKI-983	71.1	75.7
bexarotene and lenalidomide	85.3	89.4
KU-55933 and perifosine	110	99.8
OSI-906 and BI-78D3	86.4	101
fludarabine and nutlin-3	70.7	95.2
fludarabine and BI-78D3	79.7	95.9
perifosine and L-779450	72.2	59.2

The first 4 entries again:

Pair	WM3619	WM451Lu
fludarabine and lenalidomide	81.7	87.0
FH535 and perifosine	74.9	92.2
RKI-983 and FH535	46.4	89.8
CX-4945 and OSI-906	79.6	46.0

From a melanoma drug combination screen (doi:10.1371/journal.pone.0140310); values rounded.